Assay results taken from publication PMC10758121, “Miconazole-like Scaffold is a Promising Lead for Naegleria fowleri-Specific CYP51 Inhibitors” (Journal of Medicinal Chemistry, 2023).
Like-named read-outs stand apart in the source and are kept apart here.

Legend:
[1] = system: N. fowleri European KUL strain; test: Naegleria cell-based assay, dose–response (CellTiter-Glo viability, 48 h)
[2] = system: N. fowleri European KUL strain; details: read-out: anti-Naegleria potency (EC50); cited from earlier work

**Q.** Which EC50 ([1]; concentration for 50% growth inhibition from dose–response curves, triplicate, axenically cultured N. fowleri trophozoites) does the source give for `Clc1ccc(COC(Cn2ccnc2)c2ccc(Cl)cc2Cl)c(Cl)c1` (stereo not drawn) [Compound 1, miconazole] here?
**A.** 1400 ± 20 nM

**Q.** And the EC50 ([1]; supplement CSV)?
**A.** 2000 ± 40 nM

**Q.** What about the EC50 [2] of the same compound?
**A.** < 2000 nM
